Laboratory results from PMC5636874.
These are yes or no findings as the source states them, for the method shown. For some assays here: In cells and extracts the contact can be indirect. Some binding calls cover weakened binding; strength is not graded here. One block for each binder: values may come before it.

Sequences of proteins named here, by UniProt entry; tags and fusion partners are left off.
UniProt O14733: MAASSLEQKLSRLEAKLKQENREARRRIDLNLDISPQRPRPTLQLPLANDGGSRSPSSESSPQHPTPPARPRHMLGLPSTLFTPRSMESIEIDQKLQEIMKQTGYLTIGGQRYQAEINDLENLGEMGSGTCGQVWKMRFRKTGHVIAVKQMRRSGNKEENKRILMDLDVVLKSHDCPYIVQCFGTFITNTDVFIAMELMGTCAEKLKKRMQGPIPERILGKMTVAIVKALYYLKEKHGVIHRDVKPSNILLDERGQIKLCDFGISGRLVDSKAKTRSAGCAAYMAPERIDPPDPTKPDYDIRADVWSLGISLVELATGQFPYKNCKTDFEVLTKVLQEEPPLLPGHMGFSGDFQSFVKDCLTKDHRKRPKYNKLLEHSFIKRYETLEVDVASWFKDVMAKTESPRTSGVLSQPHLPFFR
UniProt Q16584: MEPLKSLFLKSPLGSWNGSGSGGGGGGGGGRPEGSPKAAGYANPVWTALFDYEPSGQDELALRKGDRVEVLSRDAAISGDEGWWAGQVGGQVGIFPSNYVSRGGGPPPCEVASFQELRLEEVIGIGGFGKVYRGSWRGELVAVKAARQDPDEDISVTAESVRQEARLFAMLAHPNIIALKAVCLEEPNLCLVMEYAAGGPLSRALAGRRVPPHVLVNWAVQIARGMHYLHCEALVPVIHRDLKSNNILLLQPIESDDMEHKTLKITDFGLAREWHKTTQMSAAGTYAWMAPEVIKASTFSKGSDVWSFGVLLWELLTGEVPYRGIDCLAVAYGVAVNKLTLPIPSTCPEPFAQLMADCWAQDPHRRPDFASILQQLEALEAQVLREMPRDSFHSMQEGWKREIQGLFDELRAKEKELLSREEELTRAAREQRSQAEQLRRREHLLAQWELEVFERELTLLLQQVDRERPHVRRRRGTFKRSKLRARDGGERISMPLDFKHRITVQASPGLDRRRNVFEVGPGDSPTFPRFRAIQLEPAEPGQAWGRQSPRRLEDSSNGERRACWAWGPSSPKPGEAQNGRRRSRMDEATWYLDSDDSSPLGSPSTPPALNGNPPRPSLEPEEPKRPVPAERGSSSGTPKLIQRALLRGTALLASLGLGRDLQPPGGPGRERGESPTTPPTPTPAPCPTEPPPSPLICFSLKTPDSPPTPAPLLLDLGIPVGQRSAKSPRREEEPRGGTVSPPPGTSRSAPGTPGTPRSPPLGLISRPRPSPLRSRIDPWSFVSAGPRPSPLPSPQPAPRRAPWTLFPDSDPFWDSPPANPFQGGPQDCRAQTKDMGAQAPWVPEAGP

Key:
[1] = molecular target: T1, JIP1 scaffold protein (mouse) (UniProt Q9WVI9); assay: co-IP; immunoprecipitation and immunoblot from 293 T cells, unstimulated and treated with TNFα for the indicated times after serum starvation
T1 sequence: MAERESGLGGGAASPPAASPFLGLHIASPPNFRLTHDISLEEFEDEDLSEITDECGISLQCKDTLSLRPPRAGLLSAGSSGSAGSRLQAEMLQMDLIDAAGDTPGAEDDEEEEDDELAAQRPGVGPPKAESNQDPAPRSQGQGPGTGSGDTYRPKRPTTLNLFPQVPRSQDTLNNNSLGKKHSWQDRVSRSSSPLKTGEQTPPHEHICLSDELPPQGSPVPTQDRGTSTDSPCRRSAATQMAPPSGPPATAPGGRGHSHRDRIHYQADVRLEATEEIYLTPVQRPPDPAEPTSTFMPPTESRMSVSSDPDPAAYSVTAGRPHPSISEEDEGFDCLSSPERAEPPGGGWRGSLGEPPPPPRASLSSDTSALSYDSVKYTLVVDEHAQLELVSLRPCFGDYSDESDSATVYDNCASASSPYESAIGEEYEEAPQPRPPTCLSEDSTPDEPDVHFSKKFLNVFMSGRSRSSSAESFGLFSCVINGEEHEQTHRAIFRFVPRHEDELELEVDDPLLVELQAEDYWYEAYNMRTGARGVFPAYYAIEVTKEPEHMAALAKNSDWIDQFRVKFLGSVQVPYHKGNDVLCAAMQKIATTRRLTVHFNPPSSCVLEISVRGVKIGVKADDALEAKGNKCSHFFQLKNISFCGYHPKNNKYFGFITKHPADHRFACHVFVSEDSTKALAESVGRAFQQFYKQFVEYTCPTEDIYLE

[2] = molecular target: MKK7 (MAPKK) (UniProt O14733); assay: as above
[3] = molecular target: MLK3 (MAPKKK) (UniProt Q16584); assay: as above
[4] = molecular target: MLK3, bacterially expressed (UniProt Q16584); assay: pull-down; in vitro binding assay with bacterially expressed purified proteins; prey and bait incubated 2 h, glutathione sepharose 2 h, washed five times with PBS, immunoblot; both purified
[5] = molecular target: T2, JIP1, bacterially expressed (mouse) (UniProt Q9WVI9); assay: as above
T2 sequence: T1 sequence

[6] = molecular target: MKK7, bacterially expressed (UniProt O14733); assay: as above

binding [1]: binds
binding [2]: binds
binding [3]: binds
B1: PTPN1 (non-transmembrane protein tyrosine phosphatase 1) (enzyme, UniProt P18031 1-435)
chain: MEMEKEFEQIDKSGSWAAIYQDIRHEASDFPCRVAKLPKNKNRNRYRDVSPFDHSRIKLHQEDNDYINASLIKMEEAQRSYILTQGPLPNTCGHFWEMVWEQKSRGVVMLNRVMEKGSLKCAQYWPQKEEKEMIFEDTNLKLTLISEDIKSYYTVRQLELENLTTQETREILHFHYTTWPDFGVPESPASFLNFLFKVRESGSLSPEHGPVVVHCSAGIGRSGTFCLADTCLLLMDKRKDPSSVDIKKVLLEMRKFRMGLIQTADQLRFSYLAVIEGAKFIMGDSSVQDQWKELSHEDLEPPPEHIPPPPRPPKRILEPHNGKCREFFPNHQWVKEETQEDKDCPIKEEKGSPLNAAPYGIESMSQDTEVRSRVVGGSLRGAQAASPAKGEPSLPEKDEDHALSYWKPFLVNMCVATVLTAGAYLCYRFLFNSNT

binding [4]: binds
binding [5]: binds
binding [6]: binds
B2: PTPN1, bacterially expressed (enzyme, UniProt P18031 1-435)
chain: B1 chain

binding [2]: binds
binding [3]: binds
B3: JIP1 scaffold protein (protein, UniProt Q9WVI9 1-707)
chain: T1 sequence
